# Reference: the M2OR odorant receptor database
# Chains of the proteins cited; added tags and fusions are not shown. Chains listed by the source or under a name are the forms on record and can include a tag or linker.
# O13A1, as listed by the source: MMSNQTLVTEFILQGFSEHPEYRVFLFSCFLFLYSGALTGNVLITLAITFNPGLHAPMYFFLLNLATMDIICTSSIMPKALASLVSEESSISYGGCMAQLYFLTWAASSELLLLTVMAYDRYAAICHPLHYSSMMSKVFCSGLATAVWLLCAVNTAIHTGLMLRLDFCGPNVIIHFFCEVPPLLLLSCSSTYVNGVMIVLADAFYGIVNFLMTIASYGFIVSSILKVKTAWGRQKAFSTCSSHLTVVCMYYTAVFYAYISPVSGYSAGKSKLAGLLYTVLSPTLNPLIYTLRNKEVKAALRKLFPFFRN
# O11H2, as listed by the source: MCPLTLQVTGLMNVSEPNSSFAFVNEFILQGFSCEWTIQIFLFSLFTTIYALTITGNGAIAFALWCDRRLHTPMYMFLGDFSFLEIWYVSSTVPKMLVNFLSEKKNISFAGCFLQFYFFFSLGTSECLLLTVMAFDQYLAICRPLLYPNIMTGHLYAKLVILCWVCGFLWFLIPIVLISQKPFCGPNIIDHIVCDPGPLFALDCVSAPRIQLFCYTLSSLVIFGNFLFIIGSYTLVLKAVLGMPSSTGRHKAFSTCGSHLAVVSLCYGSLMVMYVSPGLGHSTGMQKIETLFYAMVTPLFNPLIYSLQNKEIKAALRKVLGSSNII
# Positions count from the first letter of the chain named. Some of the results follow. The calls were merged from several studies; some rest on single wells.
# Experiments:
# Conditions in all cases: stereoisomer not certain
# O10J3 = test system: T1, O10J3
# T1 sequence (whole entry): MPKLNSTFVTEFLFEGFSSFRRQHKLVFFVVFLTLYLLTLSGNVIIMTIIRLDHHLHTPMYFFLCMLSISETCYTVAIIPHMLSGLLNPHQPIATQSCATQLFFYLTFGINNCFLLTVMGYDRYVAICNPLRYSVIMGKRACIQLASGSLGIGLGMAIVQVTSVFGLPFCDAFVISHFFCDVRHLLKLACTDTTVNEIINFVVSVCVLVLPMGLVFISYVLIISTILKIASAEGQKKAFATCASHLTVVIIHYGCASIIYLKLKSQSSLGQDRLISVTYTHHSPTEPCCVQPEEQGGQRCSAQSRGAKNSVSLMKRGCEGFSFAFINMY
# Method in brief: (§1)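 Each entry records the cell line, G-protein, co-transfected protein and tags used. Methods varied with the source, often transient luciferase assays in mammalian cell lines. A receptor–molecule pair is called responsive (active) if the original authors judged its signal statistically different from baseline and non-responsive (inactive) otherwise.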
# O10J5 = test system: T2, O10J5
# T2 sequence (whole entry): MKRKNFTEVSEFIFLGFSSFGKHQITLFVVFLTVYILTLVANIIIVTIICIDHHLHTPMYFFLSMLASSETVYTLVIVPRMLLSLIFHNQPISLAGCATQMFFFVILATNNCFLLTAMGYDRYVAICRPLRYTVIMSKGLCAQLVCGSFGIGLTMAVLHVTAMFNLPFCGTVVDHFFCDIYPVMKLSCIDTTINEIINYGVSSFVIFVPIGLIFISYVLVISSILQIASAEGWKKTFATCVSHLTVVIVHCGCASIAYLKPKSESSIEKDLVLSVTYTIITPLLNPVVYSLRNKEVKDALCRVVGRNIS
# Method in brief: as §1
# O10P1 = test system: T3, O10P1
# T3 sequence (whole entry): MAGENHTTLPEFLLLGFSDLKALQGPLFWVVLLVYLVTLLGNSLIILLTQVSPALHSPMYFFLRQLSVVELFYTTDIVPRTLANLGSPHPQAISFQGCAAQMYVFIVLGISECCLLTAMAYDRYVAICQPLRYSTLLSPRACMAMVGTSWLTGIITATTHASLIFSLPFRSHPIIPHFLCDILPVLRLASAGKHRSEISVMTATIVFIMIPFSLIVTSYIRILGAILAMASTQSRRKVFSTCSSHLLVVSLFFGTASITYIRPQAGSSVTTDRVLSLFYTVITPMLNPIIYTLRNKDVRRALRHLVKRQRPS
# Method in brief: as §1
# O10Q1 = test system: T4, O10Q1
# T4 sequence (whole entry): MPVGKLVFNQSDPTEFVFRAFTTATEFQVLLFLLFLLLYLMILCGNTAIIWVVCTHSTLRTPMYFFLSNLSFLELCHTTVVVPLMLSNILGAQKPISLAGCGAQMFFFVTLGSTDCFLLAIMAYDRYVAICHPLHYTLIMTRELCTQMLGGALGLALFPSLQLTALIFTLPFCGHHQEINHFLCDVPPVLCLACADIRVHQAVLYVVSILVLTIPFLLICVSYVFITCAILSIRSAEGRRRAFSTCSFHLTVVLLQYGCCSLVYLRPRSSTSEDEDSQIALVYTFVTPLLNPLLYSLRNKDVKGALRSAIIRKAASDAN
# Method in brief: as §1
# O10R2 [1] = test system: T5, O10R2
# T5 sequence (whole entry): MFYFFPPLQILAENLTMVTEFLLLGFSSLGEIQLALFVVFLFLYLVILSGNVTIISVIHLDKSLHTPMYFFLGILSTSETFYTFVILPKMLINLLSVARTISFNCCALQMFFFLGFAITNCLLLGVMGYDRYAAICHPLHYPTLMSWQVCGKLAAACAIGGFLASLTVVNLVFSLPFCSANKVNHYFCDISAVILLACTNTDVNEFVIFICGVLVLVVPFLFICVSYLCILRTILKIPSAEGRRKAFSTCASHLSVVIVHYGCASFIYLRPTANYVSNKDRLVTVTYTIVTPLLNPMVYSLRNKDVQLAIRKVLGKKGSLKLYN
# Method in brief: as §1
# O10R2 [2] = test system: T6, O10R2; remark: listed apart in the source
# T6 sequence (whole entry): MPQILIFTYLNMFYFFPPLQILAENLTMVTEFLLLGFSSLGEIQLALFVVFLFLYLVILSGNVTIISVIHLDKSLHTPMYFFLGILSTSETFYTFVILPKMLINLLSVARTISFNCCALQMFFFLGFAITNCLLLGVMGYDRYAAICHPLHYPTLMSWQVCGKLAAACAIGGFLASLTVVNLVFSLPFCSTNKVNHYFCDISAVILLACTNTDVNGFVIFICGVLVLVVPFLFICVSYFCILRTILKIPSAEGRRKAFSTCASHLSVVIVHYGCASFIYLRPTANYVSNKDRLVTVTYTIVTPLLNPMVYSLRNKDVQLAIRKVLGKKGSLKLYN
# Method in brief: as §1
# O10V1 = test system: T7, O10V1
# T7 sequence (whole entry): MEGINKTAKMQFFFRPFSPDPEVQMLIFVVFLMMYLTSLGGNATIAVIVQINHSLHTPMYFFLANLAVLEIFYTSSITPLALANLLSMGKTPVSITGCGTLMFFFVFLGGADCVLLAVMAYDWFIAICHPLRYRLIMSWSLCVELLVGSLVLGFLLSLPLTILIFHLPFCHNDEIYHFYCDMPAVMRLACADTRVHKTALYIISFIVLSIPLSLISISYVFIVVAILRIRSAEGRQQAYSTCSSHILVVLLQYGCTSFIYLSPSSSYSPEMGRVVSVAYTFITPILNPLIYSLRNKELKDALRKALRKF
# Method in brief: as §1
# O10W1 = test system: T8, O10W1
# T8 sequence (whole entry): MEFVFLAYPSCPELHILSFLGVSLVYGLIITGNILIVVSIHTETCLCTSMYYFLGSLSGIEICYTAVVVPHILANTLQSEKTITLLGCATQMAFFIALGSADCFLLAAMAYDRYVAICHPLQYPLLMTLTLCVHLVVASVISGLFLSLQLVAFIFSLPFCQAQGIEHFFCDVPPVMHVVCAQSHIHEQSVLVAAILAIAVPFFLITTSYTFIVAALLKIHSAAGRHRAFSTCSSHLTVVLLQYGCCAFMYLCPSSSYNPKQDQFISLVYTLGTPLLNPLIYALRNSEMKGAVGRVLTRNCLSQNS
# Method in brief: as §1
# O10X1 = test system: T9, O10X1
# T9 sequence (whole entry): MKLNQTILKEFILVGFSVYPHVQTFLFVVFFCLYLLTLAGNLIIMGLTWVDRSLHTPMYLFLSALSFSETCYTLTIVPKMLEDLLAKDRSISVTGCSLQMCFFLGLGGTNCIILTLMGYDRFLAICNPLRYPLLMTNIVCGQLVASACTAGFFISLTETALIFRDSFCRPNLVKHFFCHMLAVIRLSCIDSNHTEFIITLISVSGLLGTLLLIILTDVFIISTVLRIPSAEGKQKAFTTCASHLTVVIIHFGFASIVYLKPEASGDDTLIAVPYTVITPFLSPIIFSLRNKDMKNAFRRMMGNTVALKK
# Method in brief: as §1
# O11G2 = test system: T10, O11G2
# T10 sequence (whole entry): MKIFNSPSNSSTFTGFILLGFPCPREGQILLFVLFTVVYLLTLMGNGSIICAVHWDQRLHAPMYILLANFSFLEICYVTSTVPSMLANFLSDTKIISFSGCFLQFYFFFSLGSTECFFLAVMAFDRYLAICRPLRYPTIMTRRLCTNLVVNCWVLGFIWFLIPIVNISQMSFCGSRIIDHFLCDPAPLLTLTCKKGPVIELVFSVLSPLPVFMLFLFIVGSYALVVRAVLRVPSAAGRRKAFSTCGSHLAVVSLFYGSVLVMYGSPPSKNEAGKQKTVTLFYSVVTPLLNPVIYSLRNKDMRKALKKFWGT
# Method in brief: as §1
# O11H1 [3] = test system: T11, O11H1
# T11 sequence (whole entry): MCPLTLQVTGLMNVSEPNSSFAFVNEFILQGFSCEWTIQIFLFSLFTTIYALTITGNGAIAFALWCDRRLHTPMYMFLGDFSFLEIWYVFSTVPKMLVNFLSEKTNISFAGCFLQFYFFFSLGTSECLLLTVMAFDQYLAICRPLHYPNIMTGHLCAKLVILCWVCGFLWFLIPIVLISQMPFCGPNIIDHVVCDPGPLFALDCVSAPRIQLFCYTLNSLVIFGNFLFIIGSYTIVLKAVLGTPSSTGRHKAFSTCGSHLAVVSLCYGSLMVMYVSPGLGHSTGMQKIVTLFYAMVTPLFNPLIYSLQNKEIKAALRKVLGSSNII
# Method in brief: as §1
# O11H1 [4] = test system: T12, O11H1; remark: listed apart in the source
# T12 sequence (whole entry): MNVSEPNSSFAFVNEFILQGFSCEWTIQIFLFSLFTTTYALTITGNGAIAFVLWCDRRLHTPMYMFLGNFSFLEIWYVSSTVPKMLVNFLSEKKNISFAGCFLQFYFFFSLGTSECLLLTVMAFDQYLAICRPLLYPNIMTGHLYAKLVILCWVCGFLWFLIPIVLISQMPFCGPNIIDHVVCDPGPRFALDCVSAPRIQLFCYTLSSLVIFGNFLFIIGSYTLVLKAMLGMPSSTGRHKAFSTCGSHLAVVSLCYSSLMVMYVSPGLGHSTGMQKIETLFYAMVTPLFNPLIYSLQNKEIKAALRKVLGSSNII
# Method in brief: as §1
# O11H2 = test system: T13, O11H2
# T13 sequence (whole entry): T11 sequence (whole entry) with F90S, T105K, H146L, C156Y, M181K, V192I, N218S, I235L, T243M, V289E
# Method in brief: as §1
# O11H4 = test system: T14, O11H4
# T14 sequence (whole entry): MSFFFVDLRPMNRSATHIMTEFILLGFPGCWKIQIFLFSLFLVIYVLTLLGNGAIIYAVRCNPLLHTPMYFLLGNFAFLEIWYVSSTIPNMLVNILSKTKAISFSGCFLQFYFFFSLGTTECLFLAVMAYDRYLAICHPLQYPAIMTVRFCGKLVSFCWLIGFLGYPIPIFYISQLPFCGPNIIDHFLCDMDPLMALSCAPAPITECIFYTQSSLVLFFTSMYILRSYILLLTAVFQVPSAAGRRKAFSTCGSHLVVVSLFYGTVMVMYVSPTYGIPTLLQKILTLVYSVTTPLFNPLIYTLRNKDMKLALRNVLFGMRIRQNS
# Method in brief: as §1
# O11L1 = test system: T15, O11L1
# T15 sequence (whole entry): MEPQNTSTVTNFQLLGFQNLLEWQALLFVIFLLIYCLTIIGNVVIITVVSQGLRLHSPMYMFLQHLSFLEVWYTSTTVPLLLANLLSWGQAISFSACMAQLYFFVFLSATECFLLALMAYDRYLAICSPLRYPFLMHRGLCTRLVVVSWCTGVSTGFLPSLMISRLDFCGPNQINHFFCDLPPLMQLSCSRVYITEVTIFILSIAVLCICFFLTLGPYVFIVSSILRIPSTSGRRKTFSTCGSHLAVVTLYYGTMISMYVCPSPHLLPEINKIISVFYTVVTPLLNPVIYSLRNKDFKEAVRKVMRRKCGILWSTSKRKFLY
# Method in brief: as §1
# O12D2 = test system: T16, O12D2
# T16 sequence (whole entry): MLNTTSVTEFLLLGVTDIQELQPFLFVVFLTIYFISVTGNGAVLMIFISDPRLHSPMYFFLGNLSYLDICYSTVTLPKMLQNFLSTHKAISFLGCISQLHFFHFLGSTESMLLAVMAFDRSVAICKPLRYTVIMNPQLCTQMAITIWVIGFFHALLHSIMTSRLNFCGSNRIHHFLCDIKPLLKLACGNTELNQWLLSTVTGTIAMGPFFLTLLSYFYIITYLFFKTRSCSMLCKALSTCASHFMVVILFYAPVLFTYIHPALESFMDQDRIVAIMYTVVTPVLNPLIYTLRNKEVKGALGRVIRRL
# Method in brief: as §1
# O13C3 = test system: T17, O13C3
# T17 sequence (whole entry): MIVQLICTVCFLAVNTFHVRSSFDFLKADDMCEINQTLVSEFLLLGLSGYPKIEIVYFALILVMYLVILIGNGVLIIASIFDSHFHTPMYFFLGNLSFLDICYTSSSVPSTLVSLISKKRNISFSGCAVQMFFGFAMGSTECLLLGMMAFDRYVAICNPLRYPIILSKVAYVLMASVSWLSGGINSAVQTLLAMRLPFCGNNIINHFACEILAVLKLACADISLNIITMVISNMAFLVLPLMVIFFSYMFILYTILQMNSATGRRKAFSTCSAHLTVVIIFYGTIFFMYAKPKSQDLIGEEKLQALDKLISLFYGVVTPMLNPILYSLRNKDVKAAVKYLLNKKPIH
# Method in brief: as §1
# O13A1 = test system: O13A1
# Method in brief: as §1
SMILES,odorant receptor agonist call (O10J3),odorant receptor agonist call (O10J5),odorant receptor agonist call (O10P1),odorant receptor agonist call (O10Q1),odorant receptor agonist call (O10R2 [1]),odorant receptor agonist call (O10R2 [2]),odorant receptor agonist call (O10V1),odorant receptor agonist call (O10W1),odorant receptor agonist call (O10X1),odorant receptor agonist call (O11G2),odorant receptor agonist call (O11H1 [3]),odorant receptor agonist call (O11H1 [4]),odorant receptor agonist call (O11H2),odorant receptor agonist call (O11H4),odorant receptor agonist call (O11L1),odorant receptor agonist call (O12D2),odorant receptor agonist call (O13C3),odorant receptor agonist call (O13A1)
CCCCCCCCCCC=O,inactive,inactive,inactive,inactive,inactive,inactive,inactive,inactive,inactive,inactive,inactive,active,inactive,inactive,inactive,inactive,inactive,–
CC1=NC(C)SC1C (stereo not drawn),–,inactive,active,inactive,inactive,inactive,inactive,inactive,inactive,–,inactive,–,inactive,inactive,inactive,inactive,inactive,inactive
CC(C)(O)CCCC1=CCC(C=O)CC1 (stereo not drawn),inactive,active,–,–,–,–,–,–,–,inactive,–,inactive,–,–,–,–,–,–
CC=Cc1ccc(O)c(OC)c1,active,inactive,active,inactive,inactive,inactive,active,active,inactive,active,inactive,inactive,inactive,inactive,inactive,inactive,inactive,–
